This is an account of results in publication doi:10.1101/2024.10.23.619800.

No constants are given. Whether binding was seen depends on the method and setting. Some binding calls cover weakened binding; strength is not graded here.

The assay concerns the target ninjurin-1 (NINJ1) (mouse (endogenous in primary mouse macrophages)) (UniProt O70131). In words: native gel or EMSA. A general note: Mobility shift assays separate free from complexed probe on a gel.

B1: ninjurin-1 (NINJ1) (protein, UniProt O70131 1-152)
chain: MESGTEEYELNGDLRPGSPGSPDALPPRWGLRNRPINVNHYANKKSAAESMLDIALLMANASQLKAVVEQGNDFAFFVPLVVLISISLVLQIGVGVLLIFLVKYDLNNPAKHAKLDFLNNLATGLVFIIVVVNIFITAFGVQKPVMDVAPRQ
Regarding B1, the binding entry is “binds”.
